Structures are written as SMILES. This is one part of the list. These are further read-outs of the screen, such as a control signal, another cell line or another target. No call is given for them.

The nature of the experiment: CCRF-CEM leukemia cell cytotoxicity, late-stage follow-up, mechanism study for HRAS target identification, Alamar Blue fluorescence, several timepoints, dry powder (AID 720617). Conditions: CCRF-CEM viability, measured here: 8 h treatment viability, at 35 µM, stronger effect = lower value. (The colour change of resazurin is a common sign of viable cells or microbes.)
For the molecule `Cc1onc(C(=O)N2CCN(C(c3ccc(Cl)cc3)c3ccc(Cl)cc3)CC2)c1[N+](=O)[O-]`, the activity change was -10.9%.

With `COC(=O)c1ccc([C@@H]2c3[nH]c4ccccc4c3C[C@@H](C(=O)OC)N2C(=O)CCl)cc1`, the activity change was -5.09%.

For the molecule `C#CCCCC(=O)NCCOCCOCCOc1ccc(N(C(=O)CCl)C(C(=O)NCCc2ccccc2)c2cccs2)cc1Cl` (stereo not given), the activity change is -7.28%.

For the molecule `CC(C)(C)OC(=O)NCCOCCOCCOc1ccc(N(C(=O)CCl)C(C(=O)NCCc2ccccc2)c2cccs2)cc1Cl` (stereo not given), the activity change was -13%.

Turning to `COc1ccc(N(C(=O)CCl)C(C(=O)NCCc2ccccc2)c2cccs2)cc1Cl` (stereo not given), the activity change was -10.2%.
